In PubChem BioAssay AID588590 (National Center for Advancing Translational Sciences (NCATS), 2011):
Screen size: about 390,000 compounds; about 4,000 (1%) were called active. The inconclusive results got no clear call from the source; some entries with a clear call stand among them for comparison. The call rests on the fitted dose curve; in most records, active means well fitted inhibition curve with a large enough effect; inconclusive means small, poorly fitted or top-dose-only effect, or another doubt; inactive means no such curve, though single readings can be large or run the other way. A potency beside an inconclusive call is a rough fit, not a confirmed value.

The chains behind the UniProt entries cited, without tags or fusion partners. Where a name states a change or a piece, a line headed by the entry shows the natural chain unless it says otherwise.
UniProt Q9UNA4: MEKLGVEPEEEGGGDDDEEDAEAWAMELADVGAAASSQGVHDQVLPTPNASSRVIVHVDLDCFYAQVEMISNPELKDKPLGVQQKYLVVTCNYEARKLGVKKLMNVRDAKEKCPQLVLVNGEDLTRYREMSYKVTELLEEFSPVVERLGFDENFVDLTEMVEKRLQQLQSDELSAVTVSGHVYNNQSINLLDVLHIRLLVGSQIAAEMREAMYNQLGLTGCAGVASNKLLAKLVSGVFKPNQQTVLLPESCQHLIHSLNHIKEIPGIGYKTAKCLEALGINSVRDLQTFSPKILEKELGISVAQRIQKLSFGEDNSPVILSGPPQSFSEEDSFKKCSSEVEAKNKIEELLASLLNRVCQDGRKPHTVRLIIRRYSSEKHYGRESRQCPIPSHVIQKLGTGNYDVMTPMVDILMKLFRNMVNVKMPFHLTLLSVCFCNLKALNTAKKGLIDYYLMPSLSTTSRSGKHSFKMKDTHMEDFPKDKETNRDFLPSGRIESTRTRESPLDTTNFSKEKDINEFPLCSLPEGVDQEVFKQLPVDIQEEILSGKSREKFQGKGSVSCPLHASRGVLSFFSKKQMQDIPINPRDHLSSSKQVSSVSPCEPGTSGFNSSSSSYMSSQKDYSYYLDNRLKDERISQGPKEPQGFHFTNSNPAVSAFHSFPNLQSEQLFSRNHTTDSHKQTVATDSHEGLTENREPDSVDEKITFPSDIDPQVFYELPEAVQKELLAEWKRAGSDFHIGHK

molecular target: DNA polymerase iota (Homo sapiens) (UniProt Q9UNA4); assay: qHTS for Inhibitors of Polymerase Iota; conditions: Pol iota fluorescent replication assay, 10 min; series mostly up to 115 µM; activity, negative = inhibition: at the top concentration
Summary of the method: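 Pol iota at 10 nM preincubated 15 min with compounds at room temperature; reaction started with fluorescent substrate, 50 nM final. Fluorescence read kinetically at 0 and 10 min; buffer-only wells as negative control.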
Potency means the concentration at half of the fitted maximal effect.

| SMILES | Potency | activity, negative = inhibition |
| --- | --- | --- |
| Cc1cnc(C(=O)Nc2ccc(OC(F)(F)F)cc2)cn1 | inconclusive: 79.4 µM [inhibitor, partial curve, poor fit] |  |
| O=C(Cn1ncc2ccccc21)N1CCN(c2cccc(C(F)(F)F)c2)CC1 | inconclusive: 79.4 µM [inhibitor, single point] |  |
| Cc1nc(SCc2nc3ccc(Br)cc3[nH]2)c2oc3ccccc3c2n1 | inconclusive: 20 µM [inhibitor, partial curve, poor fit] |  |
| CCc1c(C)sc(NC(=O)CC#N)c1C#N | active: 44.7 µM |  |
| CCOc1ccccc1C=NNC(=O)C1CC1 |  | inactive: 36.4% |
| CC(=O)Nc1ccc(S(=O)(=O)N(C)CC(=O)OCCOc2cccc(C)c2)cc1 | inconclusive: 3.98 µM [inhibitor, partial curve, poor fit] |  |
| CCOc1ccccc1N(C)C(=O)Cn1nc(Cc2ccncc2)c2ccccc2c1=O | inconclusive: 89.1 µM [inhibitor, single point] |  |
| Cc1ccccc1Nc1nnc(SCC(=O)c2ccc(O)cc2O)s1 | inconclusive: 14.1 µM [inhibitor, partial curve, poor fit] |  |
| Cc1cc(C(=O)N/N=C/c2cc(Br)c(Br)o2)n[nH]1 | active: 14.1 µM |  |
| Cc1ccc([C@H]2C(C(=O)O)=CC[C@@H](c3cccc(Cl)c3)N2S(=O)(=O)c2ccc(C)cc2)cc1 |  | inactive: -7.72% |
| O=C(C[C@@H]1C/C=C/CCCC(=O)O[C@H](c2ccccc2)CNC1=O)N[C@H](CO)Cc1ccccc1 | inconclusive: 39.8 µM [inhibitor, single point] |  |
| COc1cc(NC(=O)Cn2ccn(-c3cc(C)cc(C)c3)c(=O)c2=O)cc(OC)c1 |  | inactive: 24.5% |
| CN(C)c1oc(-c2ccc(COc3ccccc3)o2)nc1C#N |  | inactive: 18% |
| NNC(=O)c1cc2sccc2s1 | inconclusive: 2.82 µM [inhibitor, full curve, poor fit] |  |
| CCc1ccc(NC(=O)CC2C(=O)N(c3ccc(C)cc3)C(=O)N2C2CCCC2)cc1 (configuration not stated) |  | inactive: 13.3% |
| CC(=O)Nc1ccc(S(=O)(=O)Nc2nc(C)nc3sc4c(c23)CCC4)cc1 | inconclusive: 0.708 µM [inhibitor, full curve, poor fit] |  |
| CS(=O)(=O)c1cccc(-c2nnc(NC(=O)c3ccc4c(c3)OCCO4)o2)c1 |  | inactive: -23.5% |
| S=c1[nH]nc(-c2ccccn2)n1/N=C/c1cccc2ccccc12 | inconclusive: 25.1 µM [inhibitor, full curve] |  |
| CCCN(CC(=O)Nc1ccccc1C)C(=O)Cc1coc2cc(C)ccc12 | inconclusive: 56.2 µM [inhibitor, partial curve] |  |
| CC1=NN(C(N)=S)C(=O)C1N=Nc1c(Br)cc(Br)cc1Br (configuration not stated) | inconclusive: 50.1 µM [inhibitor, partial curve] |  |
| COc1cc2c(cc1NC(=O)CSc1nnc(Cc3cccs3)n1C)oc1ccccc12 | inconclusive: 35.5 µM [inhibitor, partial curve, poor fit] |  |
| O=C(O)/C=C/c1ccc(-c2cccc(C(F)(F)F)c2)o1 |  | inactive: -1.26% |
| O=C(CCN1C(=O)/C(=C/c2cccs2)SC1=S)Nc1ccc(O)cc1 |  | inactive: -5.79% |

As entered above.
CCOc1ccccc1N(C)C(=O)Cn1nc(Cc2ccncc2)c2ccccc2c1=O | Potency: inconclusive: 89.1 µM [inhibitor, single point]
O=C(CCN1C(=O)/C(=C/c2cccs2)SC1=S)Nc1ccc(O)cc1 | activity, negative = inhibition: inactive: -5.79%

(listing goes on)

| SMILES | Potency | activity, negative = inhibition |
| --- | --- | --- |
| O=C(Nc1ccc2nn(-c3ccccc3)nc2c1)c1ccco1 | inconclusive: 39.8 µM [inhibitor, single point] |  |
| COC(=O)CSc1nc2c(c(-c3ccc(C)o3)c1C#N)CCCC2 | inconclusive: 17.8 µM [inhibitor, single point] |  |
| c1ccc(CCNCC2COc3ccccc3O2)cc1 (configuration not stated) | inconclusive: 89.1 µM [inhibitor, single point] |  |
| CN(C)c1ccc(/C=N\NC(=O)c2csnn2)cc1 | inconclusive: 89.1 µM [inhibitor, partial curve, poor fit] |  |
| CCN(CC)CCC(c1ccc(N(C)C)cc1)c1c(OC)cc(OC)c2c1OC(=O)CC2c1ccc(OC)cc1 (configuration not stated) |  | inactive: 4.75% |
| O=C(CN(Cc1ccccc1Cl)S(=O)(=O)c1ccc(Cl)cc1)N/N=C/c1ccc(C(=O)O)cc1 | inconclusive: 8.91 µM [inhibitor, full curve, poor fit] |  |
| Cc1ccnc2nc(C(=O)OCC(=O)c3ccc(NC(=O)CC(C)C)cc3)nn12 | inconclusive: 39.8 µM [inhibitor, partial curve] |  |
| CCCNS(=O)(=O)c1ccc(CCC(=O)NCc2ccco2)cc1 | inconclusive: 15.8 µM [inhibitor, full curve, poor fit] |  |
| COc1cc(/C=C2\C(=O)ON=C2c2ccccc2)cc(Br)c1O | inconclusive: 25.1 µM [inhibitor, single point] |  |
| N#CC1=C(N)N2C(=C(C#N)C1c1cccc(Br)c1)Nc1ccccc12 (configuration not stated) |  | inactive: 55.2% |
| COCCn1c(SC(C)C(=O)NCC2CCCO2)nc2sc3c(c2c1=O)CCC3 (configuration not stated) | inconclusive: 28.2 µM [inhibitor, partial curve, poor fit] |  |
| CCOc1cc(/C=C2/C(=N)N3N=C(C)SC3=NC2=O)ccc1OS(=O)(=O)c1ccc(C)cc1 | inconclusive: 28.2 µM [inhibitor, single point] |  |
| CCN1CCCC1CNCc1cc(OC)c(OC)c(OC)c1 (configuration not stated) | inconclusive: 25.1 µM [inhibitor, full curve, poor fit] |  |
| COc1cc(/C=N/NC(=O)c2cc3ccccc3cc2O)ccc1OCCN1CCCCC1 | inconclusive: 28.2 µM [inhibitor, full curve] |  |
| COc1cc(C(=O)Nc2sc(C)c(C)c2C(=O)O)cc(OC)c1OC | inconclusive: 79.4 µM [inhibitor, partial curve, poor fit] |  |
| CC1=NN(c2nc(-c3ccc(C)cc3)cs2)C(=O)C1N=Nc1ccccc1O (configuration not stated) |  | inactive: -21.1% |
| Cc1ccccc1NC(=O)CSc1nc(-c2ccccc2)cn1-c1ccccc1F |  | inactive: 28.5% |
| COc1ccc(NC(=O)c2sc3nc4c(cc3c2N)CCCCCC4)cc1 | inconclusive: 79.4 µM [inhibitor, single point] |  |
| Cc1cc(NC(=O)CSCC(=O)N(c2ccc(F)cc2)C(C(=O)NC2CCCCC2)c2ccc(O)c(O)c2)no1 (configuration not stated) | inconclusive: 79.4 µM [inhibitor, partial curve] |  |
| COc1ccc2c(c1)c(=O)c(Br)c(C)n2Cc1ccccc1 | inconclusive: 8.91 µM [inhibitor, full curve, poor fit] |  |
| CN(c1ccccc1)S(=O)(=O)c1ccc2[nH]c(=O)oc2c1 | active: 11.2 µM |  |
| CCc1ccc(OCC(=O)O/N=C(\N)c2ccncc2)c(Br)c1 | inconclusive: 89.1 µM [inhibitor, single point] |  |
| CCc1ccccc1NC(=O)CN(C)S(=O)(=O)c1ccc(-c2ccc(=O)[nH]n2)s1 | inconclusive: 70.8 µM [inhibitor, partial curve, poor fit] |  |

Given field by field: entries from further up
CCN1CCCC1CNCc1cc(OC)c(OC)c(OC)c1 (configuration not stated)
  Potency: inconclusive: 25.1 µM [inhibitor, full curve, poor fit]
COc1cc(/C=N/NC(=O)c2cc3ccccc3cc2O)ccc1OCCN1CCCCC1
  Potency: inconclusive: 28.2 µM [inhibitor, full curve]

(list continues)

| SMILES | Potency | activity, negative = inhibition |
| --- | --- | --- |
| CCc1nnc(NC(=O)C2Cc3ccccc3CN2S(=O)(=O)c2c(C)c(C)cc(C)c2C)s1 (configuration not stated) | inconclusive: 25.1 µM [inhibitor, partial curve, poor fit] |  |
| CC1(C(=O)O)CCC(C(=O)NC2CCCCCC2)C1(C)C (configuration not stated) | inconclusive: 22.4 µM [inhibitor, partial curve] |  |
| C[C@]12CCC[C@H](O1)c1c(cc3c(c1O)C(=O)c1c(O)cc(O)cc1C3=O)O2 | inconclusive: 25.1 µM [inhibitor, single point] |  |
| O=C(Nc1cccc(Cl)c1Cl)c1ccc(-c2ccccc2)cc1 | inconclusive: 89.1 µM [inhibitor, single point] |  |
| COc1ccc(-n2c(=S)[nH]c3c(oc4ccccc43)c2=O)cc1 | inconclusive: 89.1 µM [inhibitor, single point] |  |
| COc1ccc(C)cc1NS(=O)(=O)c1ccc2c3c(cccc13)C(=O)N2 | inconclusive: 89.1 µM [inhibitor, partial curve, poor fit] |  |
| Cc1ccc(C(=O)OCc2cc(=O)n3nc(-c4cccs4)sc3n2)cc1 | inconclusive: 89.1 µM [inhibitor, single point] |  |
| CCC(CC)CN1CCC(CN2CCNC(=O)C2=O)CC1 | inconclusive: 79.4 µM [inhibitor, partial curve, poor fit] |  |
| CC(=O)N/C(=C\c1ccc(F)cc1)C(=O)OCc1ccccc1 |  | inactive: 46.7% |
| CN1CCN(NC(=S)NC2CCCCC2)CC1 |  | inactive: -8.47% |
| O=c1c2nnn(-c3ccccc3)c2ncn1C/C=C/c1ccccc1 | inconclusive: 10 µM [inhibitor, full curve] |  |
| COCCCNC(=O)Cn1cc(/C=C(\C#N)C(=O)N2CCN(c3ccccc3)CC2)c2ccccc21 |  | inactive: -9.17% |
| CCCCNC(=O)c1onc(CSc2ccc(C(C)C)cc2)c1C(=O)O | inconclusive: 39.8 µM [inhibitor, single point] |  |
| CCOC(=O)Cn1cnc2c(C#N)c3n(c2c1=O)CCCCC3 | inconclusive: 89.1 µM [inhibitor, partial curve, poor fit] |  |
| COc1ccc2cc(C(C)C(=O)N3CCC(C)CC3)ccc2c1 (configuration not stated) |  | inactive: 72.5% |
| O=C(COc1cc2oc(=O)c3c(c2cc1Cl)CCC3)Nc1cccnc1 | inconclusive: 39.8 µM [inhibitor, partial curve, poor fit] |  |
| CN(c1ccc(C(=O)NCc2ccco2)cc1)S(C)(=O)=O |  | inactive: 10% |
| Cc1[nH]c2ccccc2c1C(=O)CCl | inconclusive: 63.1 µM [inhibitor, single point] |  |
| CCOC(=O)N1CCN(Cc2ccccc2Cl)CC1 | inconclusive: 126 µM [inhibitor, single point] |  |
| Cc1ccccc1CNC(=O)Cn1ccc2cc(S(=O)(=O)N3CCCCC3)ccc21 | inconclusive: 10 µM [inhibitor, full curve, poor fit] |  |
| CCCc1nn2c(=O)cc(COC(=O)c3cccs3)nc2s1 |  | inactive: -10.2% |
